Data as given in PubChem BioAssay AID1053208 (Peter MacCallum Cancer Centre, 2014)

Purpose: 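Synthetic lethal interactions between gene loss and doxorubicin in osteosarcoma cells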 (primary screen)
Cell system: mouse osteosarcoma cells, early-passage culture from an engineered mouse model of fibroblastic bone tumour
Reagent: siRNA pool against mouse genes, 40 nM
Duration: about 120 h (48 h before drug, then 72 h with drug)
Treatment: doxorubicin 100 nM for 72 h, roughly 30-40% inhibitory dose
Detection: 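Viability read as ATP luminescence after 72 h of 100 nM doxorubicin or none, duplicate wells averaged, scaled to non-targeting siRNA, then expressed as robust z-scores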
Reading the numbers: viability z-score with doxorubicin: higher = more viable cells under doxorubicin; viability z-score without drug: higher = more viable cells with knock-down alone
Call rule: 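a pool counts as active when its viability z-score with doxorubicin is -2 or below and its z-score without drug lies between -2 and 2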
This is an unselected part of about 17,000 reagents. Over the whole deposit, 788 (4.7%) got an active call. 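Calls rest on z-score classes alone; an extra cut-off of viability at most 70% of control was not applied to them.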 Unmarked entries are inactive. Not all columns of the deposit are shown. Reagent sequences are not shown.

With Tssk3 [SID152279669], how do the results read?
combined z-score class: no change with or without drug; viability z-score with doxorubicin: 0.56; viability z-score without drug: 0.17

For Tssk3 [SID152299915], how do the results read?
combined z-score class: no change with or without drug; viability z-score with doxorubicin: -0.11; viability z-score without drug: 0.34

For Ikzf2 [SID152326563], how do the results read?
combined z-score class: low cell count without drug only; viability z-score with doxorubicin: 0.9; viability z-score without drug: -4.05

What is on record for Nfatc4 [SID152314560]?
combined z-score class: no change with or without drug; viability z-score with doxorubicin: 1.35; viability z-score without drug: 1.85

For Fam110b [SID152261287], what does the deposit list?
combined z-score class: no change with or without drug; viability z-score with doxorubicin: 0.45; viability z-score without drug: 1.18

How did the screen score Tbc1d19 [SID152285325]?
combined z-score class: high cell count with doxorubicin only; viability z-score with doxorubicin: 2.25; viability z-score without drug: 1.52

With Or2n1 [SID152274350], what does the deposit list?
combined z-score class: no change with or without drug; viability z-score with doxorubicin: -0.11; viability z-score without drug: 0.84

For Ak3 [SID152289699], what was measured?
combined z-score class: no change with or without drug; viability z-score with doxorubicin: 0.34; viability z-score without drug: -0.34

With Arpc5l [SID152333316], what was measured?
combined z-score class: no change with or without drug; viability z-score with doxorubicin: -0.67; viability z-score without drug: -0.17

Which result is listed for Sirpa [SID152308430]?
combined z-score class: no change with or without drug; viability z-score with doxorubicin: 0.22; viability z-score without drug: 0.34

What did the screen give for Calr3 [SID152301467]?
combined z-score class: no change with or without drug; viability z-score with doxorubicin: 0.45; viability z-score without drug: -0.34

With Tff3 [SID152323236], what does the deposit list?
combined z-score class: no change with or without drug; viability z-score with doxorubicin: 1.12; viability z-score without drug: 0.67

What is on record for Csf2 [SID152292218]?
combined z-score class: no change with or without drug; viability z-score with doxorubicin: 0.9; viability z-score without drug: 1.85

What did the screen give for Or5k8 [SID152272638]?
combined z-score class: no change with or without drug; viability z-score with doxorubicin: -0.79; viability z-score without drug: -1.01

For Thbs2 [SID152302092], what does the deposit list?
combined z-score class: no change with or without drug; viability z-score with doxorubicin: 0; viability z-score without drug: 1.01

With Dhx29 [SID152301909], how do the results read?
combined z-score class: no change with or without drug; viability z-score with doxorubicin: 0.67; viability z-score without drug: 1.69

For Ucn [SID152292130], what does the deposit list?
combined z-score class: no change with or without drug; viability z-score with doxorubicin: 1.35; viability z-score without drug: 1.85

Which result is listed for Usp10 [SID152288416]?
combined z-score class: no change with or without drug; viability z-score with doxorubicin: 0.22; viability z-score without drug: 1.01

With Pdcd7 [SID152319344], how do the results read?
combined z-score class: no change with or without drug; viability z-score with doxorubicin: 1.35; viability z-score without drug: 0.84

What is on record for Prrx2 [SID152317165]?
combined z-score class: no change with or without drug; viability z-score with doxorubicin: 1.01; viability z-score without drug: 0.51

What is on record for Pdlim7 [SID152269476]?
combined z-score class: no change with or without drug; viability z-score with doxorubicin: -0.67; viability z-score without drug: -0.84

For Cd47 [SID152278668], what was measured?
combined z-score class: no change with or without drug; viability z-score with doxorubicin: 0.45; viability z-score without drug: -0.51

What is on record for Cd47 [SID152317767]?
combined z-score class: no change with or without drug; viability z-score with doxorubicin: 0.22; viability z-score without drug: 0.34

For Pbx2 [SID152293597], how do the results read?
combined z-score class: no change with or without drug; viability z-score with doxorubicin: -0.22; viability z-score without drug: -0.17

How did the screen score Dynlt3 [SID152260944]?
combined z-score class: no change with or without drug; viability z-score with doxorubicin: -1.8; viability z-score without drug: -0.84

Which result is listed for Rps21 [SID152274187]?
combined z-score class: low cell count with doxorubicin only (active); viability z-score with doxorubicin: -2.92; viability z-score without drug: -1.18

With Or51f5 [SID152264217], what does the deposit list?
combined z-score class: no change with or without drug; viability z-score with doxorubicin: -0.67; viability z-score without drug: -1.18

With Cfap161 [SID152260057], what was measured?
combined z-score class: no change with or without drug; viability z-score with doxorubicin: 1.01; viability z-score without drug: 1.52

Ordered by “viability z-score without drug” (high to low): some entries from above.
Ucn [SID152292130] | combined z-score class: no change with or without drug; viability z-score with doxorubicin: 1.35; viability z-score without drug: 1.85
Usp10 [SID152288416] | combined z-score class: no change with or without drug; viability z-score with doxorubicin: 0.22; viability z-score without drug: 1.01
Pdcd7 [SID152319344] | combined z-score class: no change with or without drug; viability z-score with doxorubicin: 1.35; viability z-score without drug: 0.84
Prrx2 [SID152317165] | combined z-score class: no change with or without drug; viability z-score with doxorubicin: 1.01; viability z-score without drug: 0.51
